Laboratory results as given in article PMC10334844.
These are yes or no findings as the source states them, for the method shown. Binding seen in cells or lysates may run through a third protein. Some binding calls cover weakened binding; strength is not graded here.

Chains of the proteins cited; added tags and fusions are not shown.
UniProt P29391: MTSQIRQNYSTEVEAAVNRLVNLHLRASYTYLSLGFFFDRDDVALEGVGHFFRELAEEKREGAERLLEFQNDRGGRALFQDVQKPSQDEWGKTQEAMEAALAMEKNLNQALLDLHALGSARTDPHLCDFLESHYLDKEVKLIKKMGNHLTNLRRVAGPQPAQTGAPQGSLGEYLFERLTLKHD

Target: T1, Ca2+-independent phospholipase A2β (mouse (endogenous in RAW264.7)) (UniProt P97819)
T1 sequence: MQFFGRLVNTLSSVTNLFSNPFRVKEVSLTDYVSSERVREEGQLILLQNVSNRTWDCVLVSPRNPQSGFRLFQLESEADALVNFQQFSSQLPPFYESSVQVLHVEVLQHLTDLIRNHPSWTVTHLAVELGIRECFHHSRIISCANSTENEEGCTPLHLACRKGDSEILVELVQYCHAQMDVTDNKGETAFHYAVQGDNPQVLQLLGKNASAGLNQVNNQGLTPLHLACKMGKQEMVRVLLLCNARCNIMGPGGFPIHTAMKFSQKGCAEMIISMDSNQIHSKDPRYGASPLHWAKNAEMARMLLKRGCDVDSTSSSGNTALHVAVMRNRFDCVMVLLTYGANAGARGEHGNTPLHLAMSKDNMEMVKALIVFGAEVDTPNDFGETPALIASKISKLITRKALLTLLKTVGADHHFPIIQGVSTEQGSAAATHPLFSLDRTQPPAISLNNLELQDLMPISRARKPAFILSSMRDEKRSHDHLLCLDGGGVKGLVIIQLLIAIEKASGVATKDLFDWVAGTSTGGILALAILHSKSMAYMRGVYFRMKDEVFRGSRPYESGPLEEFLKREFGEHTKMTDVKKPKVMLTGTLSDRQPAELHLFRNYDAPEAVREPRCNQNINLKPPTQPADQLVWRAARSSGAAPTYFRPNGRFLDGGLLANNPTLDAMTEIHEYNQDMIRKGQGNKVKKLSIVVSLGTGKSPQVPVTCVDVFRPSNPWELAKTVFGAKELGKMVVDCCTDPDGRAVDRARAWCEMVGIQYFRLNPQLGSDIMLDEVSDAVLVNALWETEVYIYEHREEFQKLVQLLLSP
Experiment: co-IP; RAW264.7 macrophage lysate in CO-IP buffer (50 mM Tris-HCl pH 7.5, 200 mM NaCl, 5 mM MgCl2, 1% NP-40, 10% glycerol, 1 mM DTT); antibodies 2 h, Protein G beads overnight at 4 °C; immunoblot

## ferritin light chain (from UniProt P29391 1-183)
  binding: binds
